# At least one read-out could not be matched to a standard name with certainty.
# Assay: Pharmacokinetics analysis in human clinical trial FLE-001, inhalation versus intravenous flecainide, venous plasma
# Format: in vivo
# Conditions: inhalation 30 mg eTLD, time post-inhalation
# Method: This example describes pharmacokinetics (PK) analysis performed during a human clinical trial (FLE-001) in which inhalation administration of flecainide was tested for safety and compared against intravenous administration of flecainide.
# This was an open label non-randomized crossover in a cohort of 6 evaluable healthy adult volunteers. This part of the study consisted of two periods with each subject receiving a total of 2 doses of flecainide, one dose in each period. In Period 1, 3 subjects received flecainide acetate solution by inhalation at the dose level of 30 mg estimated lung total dose (eTLD). and 3 subjects received a single dose of 2 mg/kg (or 150 mg, whichever is less) via a 10 min intravenous (IV) infusion of flecainide (Tambocor™ Injection; approved and used in clinical practice in Australia). In Period 2, the subjects who received flecainide inhalation solution in Period 1 now received a single dose of IV flecainide (2 mg/kg or 150 mg, whichever is less, via a 10 min infusion), while the subjects who received IV flecainide in Period 1 now received flecainide inhalation solution (30 mg eTLD). […] The interpretation is that there was no carry over effect of treatment or other changes in the subjects' vital signs and ECG intervals between the two periods. […]
compound,measurement,value
O=C(NCC1CCCCN1)c1cc(OCC(F)(F)F)ccc1OCC(F)(F)F (stereo not shown) [flecainide],Time to Cmax (Tmax),≤ 1 min

# Reference: patent US20210228825A1, “METHODS FOR DIAGNOSING BRUGADA SYNDROME USING AN AEROSOL” (InCarda Therapeutics, Inc., priority 2018, published 2021)
